# Laboratory results as given in the supplement of paper PMC8728848.
# This is one part of the list.
# B1: Agalectin (Anopheles gambiae) (protein)
# chain: MSNRPFTAKFPRYPENGDEVFIRGKLKDDAKSFSVNFCLPRPAQVAEHQTPPYIALHFKTIYDERDDTSRVVLNWKNLQWQQEEVLDNYWHVDRSQTFRVVFRLHEDCIKVFVNSVDHPPDYQFPVQLPLDQIESIELWDDVEHVEEISFRYDNGNSY
# Experiments:
# Experiment in all cases: glycan array binding signal (z-score within array); higher = stronger binding
# Conditions in all cases: glycan notation: IUPAC condensed, linker removed
# Gal6S(b1-4)Glc6S = target: Gal6S(b1-4)Glc6S
# In short: (§1)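 The Consortium for Functional Glycomics database supplied 3228 glycan arrays, of which those lacking an available protein sequence were dropped. The binding signal, a within-array Z-score, was averaged across arrays of the same protein sequence and across linkers. Negative scores can be read as non-binding.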
# Gal6S(b1-4)GlcNAc = target: Gal6S(b1-4)GlcNAc
# In short: as §1
# Gal6S(b1-4)GlcNAc6S = target: Gal6S(b1-4)GlcNAc6S
# In short: as §1
# GalNAc(a1-3)Gal = target: GalNAc(a1-3)Gal
# In short: as §1
# GalNAc(a1-3)GalNAc = target: GalNAc(a1-3)GalNAc
# In short: as §1
# [1] = target: GalNAc(a1-3)GalNAc(b1-3)Gal(a1-4)Gal(b1-4)Glc
# In short: as §1
# [2] = target: GalNAc(a1-3)GalNAc(b1-3)Gal(a1-4)Gal(b1-4)GlcNAc
# In short: as §1
# GalNAc(b1-3)Gal = target: GalNAc(b1-3)Gal
# In short: as §1
# [3] = target: GalNAc(b1-3)Gal(a1-4)Gal(b1-4)GlcNAc
# In short: as §1
# [4] = target: GalNAc(b1-3)Gal(a1-4)Gal(b1-4)GlcNAc(b1-3)Gal(b1-4)Glc
# In short: as §1
# [5] = target: GalNAc(b1-3)Gal(a1-6)Gal(b1-4)Glc
# In short: as §1
# GalNAc(b1-3)GalNAc = target: GalNAc(b1-3)GalNAc
# In short: as §1
# GalNAc(b1-3)GlcNAc = target: GalNAc(b1-3)GlcNAc
# In short: as §1
# GalNAc(b1-4)Gal(b1-4)Glc = target: GalNAc(b1-4)Gal(b1-4)Glc
# In short: as §1
# GalNAc(b1-4)GlcNAc = target: GalNAc(b1-4)GlcNAc
# In short: as §1
# [6] = target: GalNAc(b1-4)GlcNAc(b1-2)Man
# In short: as §1
# [7] = target: GalNAc(b1-4)GlcNAc(b1-2)Man(a1-3)[GalNAc(b1-4)GlcNAc(b1-2)Man(a1-6)]Man(b1-4)GlcNAc(b1-4)GlcNAc
# In short: as §1
# [8] = target: GalNAc(b1-4)GlcNAc(b1-3)GalNAc(b1-4)GlcNAc
# In short: as §1
# GalNAc(b1-4)GlcNAc6S = target: GalNAc(b1-4)GlcNAc6S
# In short: as §1
# GalNAc(b1-6)GalNAc = target: GalNAc(b1-6)GalNAc
# In short: as §1
# GalNAc3S(b1-4)GlcNAc = target: GalNAc3S(b1-4)GlcNAc
# In short: as §1
# GalNAc3S(b1-4)GlcNAc3S = target: GalNAc3S(b1-4)GlcNAc3S
# In short: as §1
# [9] = target: GalNAc3S(b1-4)[Fuc(a1-3)]GlcNAc
# In short: as §1
# GalNAc4S6S(b1-4)GlcNAc = target: GalNAc4S6S(b1-4)GlcNAc
# In short: as §1
# GalNAc6S(b1-4)GlcNAc = target: GalNAc6S(b1-4)GlcNAc
# In short: as §1
# Glc(a1-4)Glc = target: Glc(a1-4)Glc
# In short: as §1
# [10] = target: Glc(a1-4)Glc(a1-4)Glc(a1-4)Glc
# In short: as §1
# Glc(a1-6)Glc(a1-6)Glc = target: Glc(a1-6)Glc(a1-6)Glc
# In short: as §1
# [11] = target: Glc(a1-6)Glc(a1-6)Glc(a1-6)Glc
# In short: as §1
# Glc(b1-4)Glc = target: Glc(b1-4)Glc
# In short: as §1
# Glc(b1-6)Glc = target: Glc(b1-6)Glc
# In short: as §1
# GlcA(b1-3)Gal = target: GlcA(b1-3)Gal
# In short: as §1
# GlcA(b1-3)GlcNAc = target: GlcA(b1-3)GlcNAc
# In short: as §1
# GlcA(b1-6)Gal = target: GlcA(b1-6)Gal
# In short: as §1
# [12] = target: GlcA3S(b1-3)Gal(b1-4)GlcNAc(b1-2)Man
# In short: as §1
# [13] = target: GlcA3S(b1-3)Gal(b1-4)GlcNAc(b1-3)Gal(b1-4)Glc
# In short: as §1
# [14] = target: GlcNAc(a1-3)Gal(b1-4)GlcNAc
# In short: as §1
# [15] = target: GlcNAc(a1-4)Gal(b1-3)GlcNAc
# In short: as §1
# [16] = target: GlcNAc(a1-4)Gal(b1-4)GalNAc
# In short: as §1
# [17] = target: GlcNAc(a1-4)Gal(b1-4)GlcNAc
# In short: as §1
# [18] = target: GlcNAc(a1-4)Gal(b1-4)GlcNAc(b1-3)Gal(b1-4)Glc
# In short: as §1
# [19] = target: GlcNAc(a1-4)Gal(b1-4)GlcNAc(b1-3)Gal(b1-4)GlcNAc
# In short: as §1
# [20] = target: GlcNAc(a1-4)Gal(b1-4)GlcNAc(b1-3)Gal(b1-4)GlcNAc(b1-3)Gal(b1-4)GlcNAc
# In short: as §1
# [21] = target: GlcNAc(a1-4)Gal(b1-4)GlcNAc(b1-3)Gal(b1-4)[Fuc(a1-3)]GlcNAc(b1-3)Gal(b1-4)[Fuc(a1-3)]GlcNAc
# In short: as §1
# [22] = target: GlcNAc(a1-6)Gal(b1-4)GlcNAc
# In short: as §1
binder,measurement,setting,value
B1,glycan array binding signal (z-score),Gal6S(b1-4)Glc6S,-0.386
same,glycan array binding signal (z-score),Gal6S(b1-4)GlcNAc,-0.987
same,glycan array binding signal (z-score),Gal6S(b1-4)GlcNAc6S,0.075
same,glycan array binding signal (z-score),GalNAc(a1-3)Gal,-0.221
same,glycan array binding signal (z-score),GalNAc(a1-3)GalNAc,-0.555
same,glycan array binding signal (z-score),[1],-0.618
same,glycan array binding signal (z-score),[2],-0.519
same,glycan array binding signal (z-score),GalNAc(b1-3)Gal,-0.678
same,glycan array binding signal (z-score),[3],0.942
same,glycan array binding signal (z-score),[4],0.038
same,glycan array binding signal (z-score),[5],-0.579
same,glycan array binding signal (z-score),GalNAc(b1-3)GalNAc,-1.04
same,glycan array binding signal (z-score),GalNAc(b1-3)GlcNAc,-0.481
same,glycan array binding signal (z-score),GalNAc(b1-4)Gal(b1-4)Glc,0.475
same,glycan array binding signal (z-score),GalNAc(b1-4)GlcNAc,-0.111
same,glycan array binding signal (z-score),[6],0.499
same,glycan array binding signal (z-score),[7],0.904
same,glycan array binding signal (z-score),[8],-0.073
same,glycan array binding signal (z-score),GalNAc(b1-4)GlcNAc6S,0.355
same,glycan array binding signal (z-score),GalNAc(b1-6)GalNAc,-0.561
same,glycan array binding signal (z-score),GalNAc3S(b1-4)GlcNAc,-0.095
same,glycan array binding signal (z-score),GalNAc3S(b1-4)GlcNAc3S,-0.229
same,glycan array binding signal (z-score),[9],-0.78
same,glycan array binding signal (z-score),GalNAc4S6S(b1-4)GlcNAc,-0.181
same,glycan array binding signal (z-score),GalNAc6S(b1-4)GlcNAc,-0.949
same,glycan array binding signal (z-score),Glc(a1-4)Glc,-0.276
same,glycan array binding signal (z-score),[10],0.224
same,glycan array binding signal (z-score),Glc(a1-6)Glc(a1-6)Glc,-0.568
same,glycan array binding signal (z-score),[11],-0.328
same,glycan array binding signal (z-score),Glc(b1-4)Glc,-0.613
same,glycan array binding signal (z-score),Glc(b1-6)Glc,-1.13
same,glycan array binding signal (z-score),GlcA(b1-3)Gal,0.648
same,glycan array binding signal (z-score),GlcA(b1-3)GlcNAc,-0.954
same,glycan array binding signal (z-score),GlcA(b1-6)Gal,-1.35
same,glycan array binding signal (z-score),[12],-0.57
same,glycan array binding signal (z-score),[13],-0.94
same,glycan array binding signal (z-score),[14],-0.001
same,glycan array binding signal (z-score),[15],0.451
same,glycan array binding signal (z-score),[16],-0.858
same,glycan array binding signal (z-score),[17],0.21
same,glycan array binding signal (z-score),[18],-0.151
same,glycan array binding signal (z-score),[19],0.762
same,glycan array binding signal (z-score),[20],-0.12
same,glycan array binding signal (z-score),[21],0.91
same,glycan array binding signal (z-score),[22],-1.22

# Part of the list above, as tab-separated lines.
binder	measurement	setting	value
B1	glycan array binding signal (z-score)	[16]	-0.858
same	glycan array binding signal (z-score)	[17]	0.21
same	glycan array binding signal (z-score)	[18]	-0.151
